Laboratory results published in publication PMC1810427.

Chains of the proteins cited; added tags and fusions are not shown. Lines headed by an entry give the natural chain unless they say otherwise; changes in a name come on top.
UniProt P38919: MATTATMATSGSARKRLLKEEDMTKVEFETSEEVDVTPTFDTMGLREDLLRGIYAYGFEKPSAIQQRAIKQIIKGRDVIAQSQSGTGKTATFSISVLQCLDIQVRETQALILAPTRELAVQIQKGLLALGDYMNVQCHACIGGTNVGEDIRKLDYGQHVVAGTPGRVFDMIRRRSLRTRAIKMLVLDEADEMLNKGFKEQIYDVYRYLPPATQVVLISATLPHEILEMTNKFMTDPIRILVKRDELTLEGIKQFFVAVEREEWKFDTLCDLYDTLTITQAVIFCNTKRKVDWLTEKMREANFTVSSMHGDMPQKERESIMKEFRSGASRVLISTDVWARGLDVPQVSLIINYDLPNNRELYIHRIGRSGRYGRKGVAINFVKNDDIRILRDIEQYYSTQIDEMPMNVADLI

How the values were obtained:
eIF4AIII + MLN51 SELOR = test: SPR; details: 5 mM Mg2+, SPR (Biacore 2000): 40 mM Tris-HCl pH 7.8, 50 mM NaCl, 4 mM DTT, 5 mM MgCl2, 0.002% Tween 20, 30 ul/min, 10-160 nM protein, temperature not stated, recombinant protein, protein details: N-terminal His6,GST cleaved off (PreScission), label: 5' biotin
eIF4AIII (human) = eIF4AIII (human) (UniProt P38919); test: SPR; details: 5 mM Mg2+, SPR (Biacore 2000): 40 mM Tris-HCl pH 7.8, 50 mM NaCl, 4 mM DTT, 5 mM MgCl2, 0.002% Tween 20, 30 ul/min, 10-160 nM protein, temperature not stated, recombinant protein, protein details: N-terminal His6, label: 5' biotin

AUGUCAUUCGAGUACAGUCUGUUCAGCUAGUCUCC [35-mer ssRNA]
Kd (eIF4AIII + MLN51 SELOR; ATP): 500 nM | Kd (eIF4AIII + MLN51 SELOR; no nucleotide): 1000 nM | binding result (eIF4AIII (human); AMPPNP): no binding | binding result (eIF4AIII (human); ATP): no binding | binding result (eIF4AIII (human); no nucleotide): no binding

Construct, isoform or probe ends are uncertain for at least one entry. For some assays here: A negative result means that nothing was seen under these conditions.
